Data on one substance can be found in paper PMC3554717.

Sequences of proteins named here, by UniProt entry; tags and fusion partners are left off. A change or cut given only in a name is not applied to a line headed by its entry.
UniProt Q9Y2R2: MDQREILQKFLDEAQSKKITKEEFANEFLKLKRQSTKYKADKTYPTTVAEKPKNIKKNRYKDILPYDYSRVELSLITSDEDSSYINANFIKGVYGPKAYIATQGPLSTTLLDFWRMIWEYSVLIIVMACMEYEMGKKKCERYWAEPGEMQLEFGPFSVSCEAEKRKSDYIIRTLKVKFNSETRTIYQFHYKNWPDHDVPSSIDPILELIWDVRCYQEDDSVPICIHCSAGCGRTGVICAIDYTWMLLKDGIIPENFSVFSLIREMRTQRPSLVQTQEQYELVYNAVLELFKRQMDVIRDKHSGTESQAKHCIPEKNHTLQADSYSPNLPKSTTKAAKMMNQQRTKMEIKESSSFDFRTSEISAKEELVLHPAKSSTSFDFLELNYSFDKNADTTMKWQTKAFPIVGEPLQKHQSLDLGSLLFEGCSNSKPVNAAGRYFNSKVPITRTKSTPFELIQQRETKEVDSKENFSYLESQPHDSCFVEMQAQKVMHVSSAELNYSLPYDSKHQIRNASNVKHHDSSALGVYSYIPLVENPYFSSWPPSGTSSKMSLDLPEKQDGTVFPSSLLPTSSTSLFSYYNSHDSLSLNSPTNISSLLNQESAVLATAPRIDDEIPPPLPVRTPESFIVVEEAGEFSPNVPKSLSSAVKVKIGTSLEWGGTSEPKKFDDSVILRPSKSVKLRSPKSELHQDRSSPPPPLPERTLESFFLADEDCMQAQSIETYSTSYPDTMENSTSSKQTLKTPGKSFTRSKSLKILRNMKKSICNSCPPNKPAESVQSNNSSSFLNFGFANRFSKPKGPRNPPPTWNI
UniProt P41240: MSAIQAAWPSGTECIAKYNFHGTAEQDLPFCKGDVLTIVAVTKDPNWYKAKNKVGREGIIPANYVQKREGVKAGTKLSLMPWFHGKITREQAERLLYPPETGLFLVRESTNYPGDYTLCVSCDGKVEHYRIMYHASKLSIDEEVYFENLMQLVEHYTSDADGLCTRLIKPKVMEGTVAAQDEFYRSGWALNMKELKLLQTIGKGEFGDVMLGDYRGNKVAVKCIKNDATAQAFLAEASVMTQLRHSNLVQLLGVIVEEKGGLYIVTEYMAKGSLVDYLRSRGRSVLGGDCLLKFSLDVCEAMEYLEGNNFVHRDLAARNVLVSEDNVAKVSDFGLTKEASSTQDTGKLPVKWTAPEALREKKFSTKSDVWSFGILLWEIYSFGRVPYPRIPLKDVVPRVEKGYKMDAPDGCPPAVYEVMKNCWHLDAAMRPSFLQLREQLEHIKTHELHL

Holding throughout (assay): co-IP; HEK293 cells transiently transfected with myc-LYP and HA-CSK, untreated or treated with pervanadate (PV) for 5 min; lysis in 20 mM Tris/HCl pH 7.4, 150 mM NaCl, 5 mM EDTA, 1% NP-40; IP of LYP, IB for HA-CSK
The target of one assay is myc-LYP Y536F (human) (UniProt Q9Y2R2).
The target of another assay is myc-LYP Y526F (human) (UniProt Q9Y2R2).
The target of assay [1] is LYP-ΔCTH, deletion mutant of LYP tagged with the myc epitope that lacks the CTH PRM (human) (UniProt Q9Y2R2).
Assay [2] deals with myc-LYP point mutant of Arg700 (P2 motif) (human) (UniProt Q9Y2R2).
In assay [3] the target is myc-LYP point mutant of Pro615 (P1 motif) (human) (UniProt Q9Y2R2).
Assay [4] has as its target myc-LYP point mutant of Pro695 (P2 motif) (human) (UniProt Q9Y2R2).
The target in assay [5] is myc-LYP P615A/P618A/P695 (human) (UniProt Q9Y2R2).

Results are given in words; binding and its absence hold for the method and conditions named. In cells and extracts the contact can be indirect. For some of these results: Binding can be weak; no strength is given.

As to “HA-CSK (from UniProt P41240 1-450) (enzyme)”, the binding entry (in the assay with myc-LYP Y536F (human); with myc-LYP Y526F (human); in assay [1]; in assay [2]; in assay [3]; in assay [4]) was “binds” each time. The binding entry in assay [5] is on record as “no binding”.
